Out of some 53,000 sequences screened, about 3,700 (7%) were called active.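 The calls were made as follows: active = gene knockdowns whose robust z-score for IL-1 alpha signal is at least 2 or at most -2, so actives lie on both sides; inactive = the rest.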 This is one part of the list.
Test: Components of the Cytosolic LPS Sensing Pathway: Gene Identification via Genome-wide siRNA Screen;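 also: robust z of the log signal after scaling to non-targeting control siRNA wells of the plate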
Conditions: RAW264.7 macrophages, IL-1a HTRF, actives lie on both sides, screened at 100 nM (by protocol), cells primed 5 h with Pam3CSK4 first
Summary of the method: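 Knockdown: 100 nM siRNA, 48h, RAW264.7. Stimulation: Pam3CSK4 5 h, then LipidA via TransIT-TKO 24 h. Output: supernatant IL-1a HTRF, negative-control-normalized, log robust z-score; viability by CellTiter-Glo.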

Sequence | z-score
GGCCAUGUUGCAUCAGUUGTT against Kif27 | inactive: 0.438
GGUGUGAGAUCGAAUCAGATT against Arhgef18 | inactive: 0.503
GGUGCAUUUAAAAAAGCUGTT against Olfr1448 | inactive: 0.146
CGCACAAGAGUGGUUCGAATT against Sytl1 | inactive: 0.554
UUCCUUUUCUUCAUGCUUUTT against Olfr104-ps | inactive: 0.453
GAGAAGAAAAAAUGCAGUGTT against Olfr825 | inactive: 0.0375
GCUCUAUAGGCGAGCAUAGTT against Rhox11 | inactive: -1.54
GGAUUUCCCUAAAAAACACTT against Tbl2 | inactive: -0.929
CCAAGUCUCGUGUGAAAGATT against Nefh | inactive: -0.831
GGAGAAAAAUCAUCUUAUCTT against Tead1 | inactive: 0.772
GCCAAAAGAAAUUUGGGACTT against Txndc9 | inactive: 1.21
GGAACCUAUCCAAGAAGUATT against Ckap2 | inactive: 0.428
GGCCAAGUCUCCAAUUCUATT against Zfp628 | inactive: 0.568
CCAGUUAUGACAAUUAAGATT against Epha3 | inactive: -0.558
CCUCCUCUAUCAAGACAUUTT against Txnl4b | inactive: 0.245
CGGCAGUAAUCCCGUUGACTT against Rcor1 | inactive: 0.701
GCAAGUGUUAGAACACAAGTT against Cish | inactive: 0.823
CCAUACUGUUAUAGUGGUGTT against Olfr25 | inactive: 0.0612
GGUCACCAAACAGCACGUGTT against Cage1 | inactive: 1.69
GCAGUCCUCAGUCGAGAAATT against Aqp9 | inactive: -0.638
CGCAAAGAGGUAAAUGAUCTT against Rps6ka6 | inactive: 0.343
CCUGGAAAGACUCUCGGAGTT against Tpp1 | inactive: 0.424

Reprinted at random: 3 entries already listed
Sequence | z-score
GCCAAAAGAAAUUUGGGACTT against Txndc9 | inactive: 1.21
GGUGCAUUUAAAAAAGCUGTT against Olfr1448 | inactive: 0.146
CCAGUUAUGACAAUUAAGATT against Epha3 | inactive: -0.558

Additional records follow.

Sequence | z-score
GGAAAGUUAUACUUUAGGGTT against Zbtb37 | inactive: 1.49
GGCAAGUCUUUAAAAGUCCTT against Xrcc2 | inactive: -1.48
GGGCAAAAUCGUGUCAAGCTT against Dpp9 | inactive: 0.253
GGAUAAAGGAAUCUGAUCUTT against Unc80 | active: -2.58
CCAUUCAUUUUAUCACUUCTT against Il1rn | inactive: 0.372
GGACACUGUGUAUUUUGUATT against Col11a2 | inactive: -0.603
GGAUGAAGAUGGUUCGUCGTT against Kdm1b | inactive: 0.29
GGUUUUCUACAGUUAUUGUTT against Ablim2 | inactive: 1.46
GGUGAACUUCAUCUUCUCUTT against Lrwd1 | inactive: -1.29
GGUUAUCAGAGGUUUAGUUTT against Oser1 | inactive: 0.23
GGUUCUGGACUUCAUCCUCTT against Ocstamp | inactive: 1.42
GGUACUAAUGGAUUACCCATT against BC031181 | inactive: -0.064
GGUCCAAGAAGGAUUACCUTT against Uox | inactive: 0.206
GGGCCUUGUUCCUCUUGAATT against Zfand6 | inactive: -1.51
GCCAAGCUUGUCCAUUGAUTT against Akap9 | inactive: -0.443
GGCUUACCUGAUGGUUGAUTT against Asb14 | inactive: 0.0083
GCAUAUGGAUAAGAUUGUUTT against Efr3a | inactive: -0.363
GGAUCCCACACUUUUCUGATT against Rxra | inactive: 1.28
GGGACCUGAUCAUAAACUATT against Rnf183 | inactive: 1.11
GGAGGGCAUGUACUAUGAGTT against Ctsll3 | inactive: -0.404
GGAACAAGGUAAAAUACAUTT against Nthl1 | active: 3.88
GCCAGUGUUCGUGCCUGAUTT against Pomgnt2 | inactive: -1.21

Rewritten as tab-separated lines: entries from further up.
Sequence	z-score
GGUUAUCAGAGGUUUAGUUTT against Oser1	inactive: 0.23
GGUUCUGGACUUCAUCCUCTT against Ocstamp	inactive: 1.42
GGUACUAAUGGAUUACCCATT against BC031181	inactive: -0.064

Continued:

Sequence | z-score
CCGACUCCCAUGCAUCUAUTT against Mccc2 | inactive: -0.681
GGGAAAAUUUCCUCUGACUTT against Chia1 | active: -2.03
GGAAAGAGACAACUACUUATT against Prokr1 | inactive: 1.1
GGGCAGGAUUCAGGGAACATT against Ntrk3 | inactive: -1.13
CCAUCACUACACGAAAUUGTT against Fgf12 | inactive: 0.176
GCUGCCUAUUUACUGAUCCTT against Chrm3 | inactive: -0.569
GGUGAUGACGAAGGAAUCCTT against Zfpm2 | inactive: -1.51
GGUCAUCCAGCUAUCUGAUTT against Zcchc7 | inactive: 0.192
GCAUUAUACCUGUCAAGUUTT against Klk1b1 | inactive: 0.608
GCGCAACUCCAUGAGGAGATT against Kcnj8 | inactive: 1.2
UUGCAUUACGUGUGGUAUGTT against Mustn1 | inactive: 0.696
CCAGGUGAAAACCAGGAUATT against Olfr205 | inactive: 0.925
GCAAGAUCUGUAUGUCCGCTT against Ebf3 | inactive: 1.38
CCUGUCAAUGCAAGAAUGGTT against Nell1 | inactive: -0.368
GGUUCUAGGACCUAUUUUGTT against Cep57 | inactive: 1.87
GGAUAAUGUUGUCUGUCUATT against Nmd3 | inactive: -0.418
GCCUUUUUGGAGAAUGAAUTT against Rhbdl1 | inactive: -0.33
CAACUCUCUUGCUCAGACATT against Olfr814 | inactive: -0.268
GCGCAGGAUGAGAAGUUCUTT against Slc43a3 | active: 3
GGCAGAAGGCCAGUGGAUUTT against Tmem121b | inactive: 1.21
GGAGCACAGGUCUAUGAACTT against Neu4 | inactive: -0.757
GGUGCUUUAAAGAAAAUGCTT against Msantd3 | inactive: -1.84

Sequence | z-score
GGAUCCUGAAACAGUUCAATT against Atm | inactive: -0.218
GGAAACGUAUUUAAAUCCATT against Fezf2 | inactive: -0.322
GGGAAGUGAGACAUGCUGUTT against Patz1 | inactive: 0.671
UGCCGUAGGACUCAUCGGUTT against Olfr151 | inactive: -0.907
GGCUUAUGUCACCAACUUGTT against Pxdc1 | inactive: -0.533
GGACCAAGCUGUGUACUCUTT against Olfr346 | inactive: -0.867
GCCCAUCUUCCUAGUGUUUTT against Atp6v0b | inactive: 1.43
GGCAGCUAACAAGACAUGUTT against Vegfc | inactive: 0.0932
GCGAACUGUCCAAAACCAATT against Nr5a2 | inactive: -0.709
CGUAUAUCCGGUCAGAAGATT against Cnot4 | inactive: 0.634
CCUAAAAGCCAUUAUCAAATT against Abce1 | inactive: -1.13
GGUGCAAAACAUGUCUCAATT against Olfm1 | inactive: 0.76
GGCCUGGAUAACAGAAAAUTT against Rbp7 | inactive: -0.418
GGCAUCUCUAUACCUGUCUTT against Adrb3 | inactive: -1.79
GGUCGUCUGAUUUUUGAUATT against Atp1a1 | inactive: 0.391
GCUAGCUGUUGUAAAAGAATT against Gm4841 | inactive: -0.507
GCCCUUGAAUAGAAGACAGTT against Gosr2 | inactive: 0.631
GCAUGGAAUAAGUACAUUUTT against Slc1a1 | inactive: 0.472
GCCCAUUGAUCCGGAGUAATT against Dusp28 | inactive: 0.252
GCAUUCAGAAUGAGCUGACTT against Nfasc | inactive: -0.921
GGCUCAUUCCUCUUCUUCCTT against Serhl | active: -3.08
GGAACACACCAUCAUCCAGTT against H2-Ea | inactive: 1.29

Sequence | z-score
GGUACUCAAUGCAAGAAAUTT against Coq10b | inactive: 0.264
GGCAGUGGUGAUAUACCAATT against Acsbg1 | inactive: -0.0129
GGUCACACUUUCUUUGGAATT against Tcf25 | inactive: 0.775
GGCCAUUGCCUCUUCUACUTT against Plekha4 | inactive: -0.225
GGUUGUUGUGACCUUCCUGTT against Bod1 | active: -2.65
GGAGAAAGAUGGCAUAAUGTT against Slitrk6 | inactive: -0.595
CGCCCAGUGCAAUUUUUUCTT against Asap2 | inactive: -0.313
GCUUUCAGAUGGCUUUAAUTT against Psmc6 | inactive: -1.94
CCCACGAUACUCAAUUUUCTT against 1700006J14Rik | inactive: -0.646
CCAUGUGUAAAGGGAGAAATT against Nxph2 | inactive: 0.893
GCACUUUCCUAAUGGUCCUTT against Ifnab | inactive: 0.104
CCACAUUCUAGGUAUCUUGTT against Mapk3 | inactive: -0.499
CCUAGUUGAAAAUUGGGAATT against Fuca2 | inactive: 0.354
GCCGGAAGAUAAGGCUCAUTT against Gap43 | active: -2.2
GGCUUAGCCUUUUCUUCCCTT against Notum | inactive: -1.1
GGAAGUCAAUCAGAGUCUGTT against Chd1 | inactive: -0.936
GGAAGAGGACUGCUUAUCCTT against Zfp772 | inactive: -1.87
GUGUAGCUCUUCACAGUUATT against Fgf2os | inactive: 0.673
GGUUCAGCAAGAAGAAUCATT against Cyp3a13 | inactive: -0.668

Laid out differently: results already given.
Sequence	z-score
GUGUAGCUCUUCACAGUUATT against Fgf2os	inactive: 0.673
GGUUCAGCAAGAAGAAUCATT against Cyp3a13	inactive: -0.668

Source: PubChem BioAssay AID1508600 (Functional Genomics Laboratory (NCATS/FGL), 2020)
